Source: patent publication US7868135B2 (priority 2003, dated 2011)

test: general procedure: peptide synthesis; 2-chlorotrityl amine resin; Wang Resin (for building blocks); succinimide activated esters (hydroxysuccinimide/dicyclohexylcarbodiimide), sodi; conditions: coupling step

Row | Substance | final purity (method not given) [% pure] | step yield [% yield]
1 | C15-Amphomycin-9-Dap-(β-N-(β-Ala)) | 85 | 7
2 | C15-Amphomycin-9-Gly-(D-Leu) | 83 | 19
3 | C15-Amphomycin-9-Gly-Ahx | 98 | 15
4 | C15-Amphomycin-9-Gly-Gly-Lys | 88 | 54
5 | C15-Amphomycin-9-Gly-Lys-Gly | 77 | 68
6 | C15-Amphomycin-9-Gly-Lys-Lys | 74 | 52
7 | C15-Amphomycin-9-Lys-Gly | 91 | 63
8 | C15-Amphomycin-9-Lys-Lys | 72 | 23
9 | C15-Amphomycin-9-Lys-Lys-Lys | 91 | 56
10 | C15-Amphomycin-9-Pro-Lys | 88.9 | 22.6
11 | C15-Amphomycin-9-Sar-Ahx | 98 | 12
12 | C15-Amphomycin-9-Sar-Lys | 84 | 9

same assay, conditions: late stage modification step

Row | Substance | final purity (method not given) [% pure] | step yield [% yield] | purity (crude or final not stated) [% pure]
13 | C12-Amphomycin-9-Gly-Lys | 80 | 10 | 
14 | C13-Amphomycin-9-Gly-Lys | 93 | 46 | 
15 | C15-Amphomycin-9-(N-Benzoyl-Tyr-PABA) | 91 | 11 | 
16 | C15-Amphomycin-9-Ahx-Gly | 99 | 30 | 
17 | C15-Amphomycin-9-Gly-(D-Ala) | 75 | 37 | 
18 | C15-Amphomycin-9-Gly-(D-Lys) | 82 | 58 | 
19 | C15-Amphomycin-9-Gly-Ac | 89 | 11 | 
20 | C15-Amphomycin-9-Gly-Dap | 73 | 36 | 
21 | C15-Amphomycin-9-Gly-GABA | 74 | 31 | 
22 | C15-Amphomycin-9-Gly-Gly | 98 | 28 | 
23 | C15-Amphomycin-9-Gly-Gly-Gly | 89 | 38 | 
24 | C15-Amphomycin-9-Gly-Leu | 98 | 26 | 
25 | C15-Amphomycin-9-Gly-Lys | 80 | 41 | 
26 | C15-Amphomycin-9-Gly-Orn | 68 | 66 | 
27 | C15-Amphomycin-9-Gly-Phe | 77 | 26 | 
28 | C15-Amphomycin-9-Gly-Suc | 93 | 23 | 
29 | C15-Amphomycin-9-Gly-Val | 96 | 30 | 
30 | C15-Amphomycin-9-Pro-Gly | 84 | 40 | 
31 | C15-Amphomycin-9-Sar-(N,N-Dimethyl-Gly) | 99 | 32 | 
32 | C15-Amphomycin-9-Sar-Dap | 83 | 16 | 
33 | C15-Amphomycin-9-Sar-Orn | 89 | 16 | 
34 | C16-Amphomycin-9-Gly-Lys | 79 | 13 | 
35 | C17-Amphomycin-Gly-Lys | 82 | 15 | 
36 | CH3—(CH2)9—SO2-Gly-Amphomycin-9-Gly | 78 | 18 | 
37 | CH3—(CH2)9—SO2-Gly-Amphomycin-9-Lys | 83 | 5.7 | 
38 | CH3—(CH2)11—O-p-Ph-C(═O)-Gly-Amphomycin-9-Gly | 88 | 19 | 
39 | CH3—(CH2)13—NH—C(═O)-Amphomycin-9-Gly-Lys |  | 28 | 80

same assay, conditions: lipidation step

Row | Substance | final purity (method not given) [% pure] | step yield [% yield] | purity (crude or final not stated) [% pure]
40 | 4′-Octyl-Biphenyl-4-Carboxyl-Amphomycin | 67.3 | 2.4 | 
41 | (CH3—(CH2)7)(CH3—(CH2)5)CH—C(═O)-Gly-Amphomycin |  |  | 84
42 | C6-Gly-Amphomycin |  | 31.7 | 83.9
43 | C8-Gly-Amphomycin |  | 16.1 | 82
44 | C8-Sar-Amphomycin |  | 3.1 | 98.2
45 | C10-Gly-Amphomycin |  | 37.8 | 91.7
46 | C10-Sar-Amphomycin |  | 42.3 | 99.1
47 | C11-(Asp-(OMe))-Amphomycin |  |  | 92
48 | C11-(Asp-(OtBu))-Amphomycin |  |  | 85
49 | C12-Gly-Amphomycin |  |  | 90
50 | C12-PABA-Gly-Amphomycin |  |  | 82
51 | C13-(Asp-(OMe))-Amphomycin |  | 12 | 93
52 | C13-(Asp-(OtBu))-Amphomycin |  |  | 93
53 | C14-Gly-Amphomycin | 92 | 24 | 
54 | C14-PABA-Gly-Amphomycin-9-Gly |  |  | 86
55 | C14-Sar-Amphomycin |  | 2.4 | 80.9
56 | C15-(Asp-(OME))-Amphomycin |  |  | 91

Row | Substance | final purity (method not given) [% pure] | step yield [% yield] | purity (crude or final not stated) [% pure]
57 | C15-(Asp-(Ome))-Amphomycin |  | 45 | 93
58 | C15-Amphomycin-9-Gly-C6 | 98 | 9 | 
59 | C15-Phg-Amphomycin |  |  | 75
60 | C15-[Asp-(OtBu)]-Amphomycin |  |  | 68
61 | C16-Gly-Amphomycin | 96 | 35 | 
62 | C18-Gly-Amphomycin | 84 | 29 | 
63 | CH3—(CH2)9—O-p-Ph-C(═O)-Gly-Amphomycin | 88 | 28 | 
64 | CH3—(CH2)9—SO2-Gly-Amphomycin | 89 |  | 
65 | CH3—(CH2)9—SO2-Phe-Amphomycin | 91 | 21 | 
66 | CH3—(CH2)11—NH—C(═O)-Gly-Amphomycin |  |  | 93
67 | CH3—(CH2)11—O-p-Ph-C(═O)-Gly-Amphomycin | 86 | 30 | 
68 | CH3—(CH2)13—NH—C(═O)-Gly-Amphomycin |  | 36.6 | 70.9
69 | CH3—(CH2)15—SO2-Gly-Amphomycin | 89 |  | 
70 | CH3—(CH2)15—SO2-Phe-Amphomycin | 91 | 21 | 
71 | Lys-Gly-Amphomycin-9-C13 |  | 17.8 | 89
72 | Lys-Gly-Amphomycin-9-C15 |  | 17.5 | 90
73 | Ph-O—(CH2)11-Gly-Amphomycin |  |  | 87
